The assay has as its target exportin1 (chromosome region maintenance 1, CRM1) (human (endogenous in U2OS)) (UniProt O14980). Description: co-IP; total lysates of U2OS cells transfected with control vector, HA-FIH 1–349 or HA-FIH ΔNES, immunoprecipitated with anti-exportin1 antibody, blotted for HA-FIH; pNAS buffer, 16 h at 4°C.

Amino acid sequences for entries named in this document (tags omitted).
UniProt O14980: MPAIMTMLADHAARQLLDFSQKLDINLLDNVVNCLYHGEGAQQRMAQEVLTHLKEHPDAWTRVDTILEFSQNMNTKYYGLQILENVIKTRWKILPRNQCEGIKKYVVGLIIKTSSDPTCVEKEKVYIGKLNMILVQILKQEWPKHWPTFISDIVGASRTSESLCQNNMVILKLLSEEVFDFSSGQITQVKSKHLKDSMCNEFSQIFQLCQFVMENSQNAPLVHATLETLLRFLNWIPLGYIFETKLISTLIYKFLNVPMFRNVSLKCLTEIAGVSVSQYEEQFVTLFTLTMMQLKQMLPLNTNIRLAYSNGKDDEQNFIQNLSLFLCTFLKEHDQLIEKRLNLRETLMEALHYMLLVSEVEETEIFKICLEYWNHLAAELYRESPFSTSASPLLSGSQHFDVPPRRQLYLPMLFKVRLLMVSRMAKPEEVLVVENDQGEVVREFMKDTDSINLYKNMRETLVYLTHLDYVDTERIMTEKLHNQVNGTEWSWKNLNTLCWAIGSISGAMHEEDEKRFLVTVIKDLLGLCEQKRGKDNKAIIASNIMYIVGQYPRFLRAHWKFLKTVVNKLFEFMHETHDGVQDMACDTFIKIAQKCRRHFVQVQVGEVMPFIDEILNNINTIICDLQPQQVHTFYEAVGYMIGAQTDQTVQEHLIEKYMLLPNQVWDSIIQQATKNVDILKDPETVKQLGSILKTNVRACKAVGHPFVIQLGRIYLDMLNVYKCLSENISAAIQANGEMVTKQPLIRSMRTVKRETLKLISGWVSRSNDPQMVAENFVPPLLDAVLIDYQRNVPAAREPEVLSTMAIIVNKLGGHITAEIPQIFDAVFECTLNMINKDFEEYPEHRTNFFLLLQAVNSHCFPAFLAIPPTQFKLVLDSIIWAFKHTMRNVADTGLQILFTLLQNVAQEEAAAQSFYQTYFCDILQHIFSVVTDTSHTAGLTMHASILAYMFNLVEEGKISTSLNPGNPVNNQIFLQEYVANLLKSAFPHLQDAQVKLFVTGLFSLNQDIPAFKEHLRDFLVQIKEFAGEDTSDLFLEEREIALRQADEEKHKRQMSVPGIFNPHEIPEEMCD

Results are given in words; binding and its absence hold for the method and conditions named. Binding seen in cells or lysates may run through a third protein. Where a sequence is shown, tags or fusion partners need not be part of it.

B1: HA-tagged FIH lacking the predicted NES 128–137 (HA-FIH ΔNES) (enzyme, UniProt Q9NWT6)
chain: MAATAAEAVASGSGEPREEAGALGPAWDESQLRSYSFPTRPIPRLSQSDPRAEELIENEEPVVLTDTNLVYPALKWDLEYLQENIGNGDFSVYSASTHKFLYYDEKKMANFQNFKPRSNREEMKFHERGGEERLYLQQTLNDTVGRKIVMDFLGFNWNWINKQQGKRGWGQLTSNLLLIGMEGNVTPAHYDEQQNFFAQIKGYKRCILFPPDQFECLYPYPVHHPCDRQSQVDFDNPDYERFPNFQNVVGYETVVGPGDVLYIPMYWWHHIESLLNGGITITVNFWYKGAPTPKRIEYPLKAHQKVAIMRNIEKMLGEALGNPQEVGPLLNTMIKGRYN
On to B1, for which the binding result is reported as “no binding”.

(Values after paper PMC6250434.)
